IC50 data for three molecules are collected here from patent US20230117592A1 (SRI International, priority 2019, published 2023).

By UniProt entry, the sequences of proteins in these tests, tags left out. Residues count along the entry.
UniProt P09917, whole entry: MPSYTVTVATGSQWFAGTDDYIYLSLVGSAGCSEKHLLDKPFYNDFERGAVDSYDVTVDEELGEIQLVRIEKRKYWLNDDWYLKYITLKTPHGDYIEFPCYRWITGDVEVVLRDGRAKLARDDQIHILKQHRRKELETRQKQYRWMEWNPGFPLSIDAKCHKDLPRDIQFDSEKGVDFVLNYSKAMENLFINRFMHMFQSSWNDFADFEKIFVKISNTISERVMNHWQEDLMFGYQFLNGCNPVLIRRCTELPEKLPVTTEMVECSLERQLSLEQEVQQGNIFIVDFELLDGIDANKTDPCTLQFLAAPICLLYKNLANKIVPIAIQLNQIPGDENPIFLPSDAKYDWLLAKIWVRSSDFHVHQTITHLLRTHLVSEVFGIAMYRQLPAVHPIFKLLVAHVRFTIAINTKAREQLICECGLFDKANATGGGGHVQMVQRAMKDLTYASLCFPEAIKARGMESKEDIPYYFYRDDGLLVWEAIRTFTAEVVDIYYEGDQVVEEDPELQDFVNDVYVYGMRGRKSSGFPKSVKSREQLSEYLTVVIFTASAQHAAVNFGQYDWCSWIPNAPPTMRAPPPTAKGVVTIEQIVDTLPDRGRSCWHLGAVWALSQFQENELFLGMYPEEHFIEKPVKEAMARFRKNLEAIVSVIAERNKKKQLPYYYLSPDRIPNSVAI
UniProt P16050, 2-662 limits assumed: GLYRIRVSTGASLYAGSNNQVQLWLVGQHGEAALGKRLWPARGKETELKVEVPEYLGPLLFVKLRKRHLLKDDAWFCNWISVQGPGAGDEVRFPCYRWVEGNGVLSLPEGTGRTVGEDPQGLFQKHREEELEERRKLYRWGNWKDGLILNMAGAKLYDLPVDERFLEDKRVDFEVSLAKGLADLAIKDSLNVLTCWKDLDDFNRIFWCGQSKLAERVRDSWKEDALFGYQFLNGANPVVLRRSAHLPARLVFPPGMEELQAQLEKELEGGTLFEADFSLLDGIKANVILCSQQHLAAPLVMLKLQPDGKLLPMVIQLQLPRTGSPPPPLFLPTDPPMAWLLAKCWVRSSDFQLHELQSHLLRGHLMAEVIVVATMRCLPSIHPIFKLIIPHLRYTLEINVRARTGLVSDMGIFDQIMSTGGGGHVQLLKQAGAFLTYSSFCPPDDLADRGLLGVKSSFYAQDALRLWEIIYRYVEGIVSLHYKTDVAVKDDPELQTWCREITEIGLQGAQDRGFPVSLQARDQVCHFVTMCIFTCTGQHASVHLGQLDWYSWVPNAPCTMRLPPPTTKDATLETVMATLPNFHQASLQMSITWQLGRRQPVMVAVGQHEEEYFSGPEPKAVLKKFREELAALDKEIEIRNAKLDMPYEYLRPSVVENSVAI
UniProt P18054, whole entry: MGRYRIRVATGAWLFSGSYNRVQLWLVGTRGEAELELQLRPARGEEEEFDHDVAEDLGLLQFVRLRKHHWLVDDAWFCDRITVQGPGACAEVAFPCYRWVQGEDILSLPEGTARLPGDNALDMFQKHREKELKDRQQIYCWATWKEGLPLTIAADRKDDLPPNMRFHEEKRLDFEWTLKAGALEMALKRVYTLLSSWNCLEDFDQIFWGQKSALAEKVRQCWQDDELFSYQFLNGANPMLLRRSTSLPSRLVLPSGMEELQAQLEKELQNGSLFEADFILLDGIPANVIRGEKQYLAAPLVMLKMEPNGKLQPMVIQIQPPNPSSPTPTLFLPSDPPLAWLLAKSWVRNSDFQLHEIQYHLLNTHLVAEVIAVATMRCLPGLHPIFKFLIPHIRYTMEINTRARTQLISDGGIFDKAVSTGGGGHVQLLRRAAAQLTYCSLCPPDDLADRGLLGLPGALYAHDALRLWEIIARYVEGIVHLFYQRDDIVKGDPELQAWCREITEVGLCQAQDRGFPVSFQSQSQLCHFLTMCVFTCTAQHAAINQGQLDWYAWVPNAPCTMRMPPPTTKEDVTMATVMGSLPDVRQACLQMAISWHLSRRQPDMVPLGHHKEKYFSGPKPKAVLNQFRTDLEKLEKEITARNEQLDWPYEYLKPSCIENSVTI

One test deals with 5-LOX (Homo sapiens, UniProt P09917). Briefly: 5-LOX fluorescent assay (in vitro lipoxygenase inhibition). In kind it is biochemical. The settings on record: read-out: IC50 (μM) values for in vitro lipoxygenase inhibition, 5-LOX; recombinant 5-LOX cell lysate, 20 μM AA, DHR123 fluorescence; several values in a cell = repeat determinations.
Another test addresses 15-LOX (Homo sapiens, UniProt P16050). Briefly: 15-LOX fluorescent assay (in vitro lipoxygenase inhibition). The settings on record: read-out: IC50 (μM) values for in vitro lipoxygenase inhibition, 15-LOX; 50 nM recombinant 15-LOX, 20 μM LA, DHR123 fluorescence; several values in a cell = repeat determinations.
The next test deals with 12-LOX (Homo sapiens, UniProt P18054). Briefly: 12-LOX fluorescent assay (in vitro lipoxygenase inhibition). The class given is biochemical. The settings on record: read-out: IC50 (μM) values for in vitro lipoxygenase inhibition, 12-LOX; 100 nM recombinant 12-LOX, 20 μM AA, DHR123 fluorescence; several values in a cell = repeat determinations.

Several values for one entry are separate records, joined by “and”; a condition that tells them apart may be missing. Equal entries are not always repeated. The structures given here were assigned with low confidence; some may be wrong.

Turning to `c1ccc(Nc2ccc(-c3ccccc3)c(NCCn3cncn3)c2)cc1` [SS20308-0095-01, N^2-(2-(1H-1,2,4-triazol-1-yl)ethyl)-N^4-phenylbiphenyl-2,4-diamine], the IC50 on 5-LOX stood at 0.25 µM; at 15-LOX, 0.44 µM; on 12-LOX it was 0.19 µM.

Turning to `CN(C)CCc1cc(Nc2ccccc2)ccc1Nc1ccccc1Cl`, the IC50 at 15-LOX was 0.09 µM and 0.17 µM; on 12-LOX it was 0.12 µM and 0.13 µM.

`FC(F)(F)c1cc(Nc2ccc(Cl)cc2)ccc1NCCN1CCOCC1`: the IC50 on 5-LOX came to 0.08 µM; on 15-LOX, 0.09 µM; on 12-LOX, 0.06 µM.

What is called IC50 is the midpoint of a concentration-inhibition curve.
